In publication PMC8505509:
These are yes or no findings as the source states them, for the method shown. In cells and extracts the contact can be indirect. Some entries that bind do so weakly or less than the wild type.

Experiments:
[1] = target: Flag-EGFR (wild-type) (human) (UniProt P00533); experiment: co-IP; HEK293T co-transfected with EGFR, FBXL2 and Grp94 plasmids for 36 h, one of the competitors in rising dose, MG132 for 4 h, IP-Western
[2] = target: Flag-EGFR (wild-type) (human) (UniProt P00533); experiment: co-IP; HEK293T co-transfected with the indicated expression plasmids, MG132 for 4 h, anti-HA or anti-Flag beads, IP-Western; in Fig. 5f, g also with shGrp94 or ganetespib (8 nM, 12 h)
[3] = target: Flag-EGFR^E931A (human) (UniProt P00533); experiment: as above
[4] = target: T1, FBXO3 (UniProt Q9UK99); experiment: co-IP; HEK293T transfected with FBXO3 or FBXO3 mutant plasmids, without or with 10 µM nebivolol for 36 h, MG132, IP-Western; endogenous FBXL2
T1 sequence: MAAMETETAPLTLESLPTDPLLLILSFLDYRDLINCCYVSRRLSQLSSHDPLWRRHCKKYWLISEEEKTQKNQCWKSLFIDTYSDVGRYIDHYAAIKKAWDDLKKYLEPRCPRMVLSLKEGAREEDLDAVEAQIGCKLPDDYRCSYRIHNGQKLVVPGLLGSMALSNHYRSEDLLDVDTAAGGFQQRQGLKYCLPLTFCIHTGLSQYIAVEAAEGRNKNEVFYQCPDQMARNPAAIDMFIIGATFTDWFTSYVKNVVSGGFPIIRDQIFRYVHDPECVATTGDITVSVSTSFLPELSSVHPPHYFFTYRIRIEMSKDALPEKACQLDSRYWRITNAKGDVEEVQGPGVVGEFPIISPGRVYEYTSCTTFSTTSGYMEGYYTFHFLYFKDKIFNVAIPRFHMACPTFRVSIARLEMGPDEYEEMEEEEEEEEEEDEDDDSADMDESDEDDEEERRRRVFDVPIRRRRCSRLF

| binding [1] | binding [2] | binding [3] | binding [4] | Substance |
| --- | --- | --- | --- | --- |
| binds | binds | binds | – | Myc-Grp94 (from UniProt P14625 22-803) |
| – | – | – | binds | endogenous FBXL2 (from UniProt Q9UKC9 1-423) |
